Test results taken from PMC8863836.
No constants are given. Whether binding was seen depends on the method and setting. In cells and extracts the contact can be indirect. Some entries that bind do so weakly or less than the wild type.

The chains behind the UniProt entries cited, without tags or fusion partners.
UniProt Q9CUN6: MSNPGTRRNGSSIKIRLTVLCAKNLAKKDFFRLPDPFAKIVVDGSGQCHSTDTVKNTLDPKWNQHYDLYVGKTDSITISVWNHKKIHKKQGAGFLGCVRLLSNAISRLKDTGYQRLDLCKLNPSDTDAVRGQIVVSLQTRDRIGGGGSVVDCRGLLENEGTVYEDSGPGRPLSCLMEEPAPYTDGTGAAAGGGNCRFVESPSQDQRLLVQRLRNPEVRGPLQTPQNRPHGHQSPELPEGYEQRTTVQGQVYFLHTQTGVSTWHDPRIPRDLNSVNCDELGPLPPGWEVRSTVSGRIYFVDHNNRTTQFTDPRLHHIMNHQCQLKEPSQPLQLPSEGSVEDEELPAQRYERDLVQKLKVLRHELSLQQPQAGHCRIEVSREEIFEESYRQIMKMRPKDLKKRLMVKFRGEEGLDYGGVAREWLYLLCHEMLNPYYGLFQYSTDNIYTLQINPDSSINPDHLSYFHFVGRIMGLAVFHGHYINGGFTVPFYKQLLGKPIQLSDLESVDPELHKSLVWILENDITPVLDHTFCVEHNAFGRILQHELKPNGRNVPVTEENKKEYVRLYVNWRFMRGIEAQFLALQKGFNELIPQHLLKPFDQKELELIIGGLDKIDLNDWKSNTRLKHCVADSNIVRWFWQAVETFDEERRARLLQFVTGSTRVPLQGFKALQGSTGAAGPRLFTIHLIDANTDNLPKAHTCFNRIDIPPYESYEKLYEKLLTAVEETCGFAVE

Target: T1, UV radiation resistance-associated gene (UVRAG) (UniProt Q8K245)
T1 sequence: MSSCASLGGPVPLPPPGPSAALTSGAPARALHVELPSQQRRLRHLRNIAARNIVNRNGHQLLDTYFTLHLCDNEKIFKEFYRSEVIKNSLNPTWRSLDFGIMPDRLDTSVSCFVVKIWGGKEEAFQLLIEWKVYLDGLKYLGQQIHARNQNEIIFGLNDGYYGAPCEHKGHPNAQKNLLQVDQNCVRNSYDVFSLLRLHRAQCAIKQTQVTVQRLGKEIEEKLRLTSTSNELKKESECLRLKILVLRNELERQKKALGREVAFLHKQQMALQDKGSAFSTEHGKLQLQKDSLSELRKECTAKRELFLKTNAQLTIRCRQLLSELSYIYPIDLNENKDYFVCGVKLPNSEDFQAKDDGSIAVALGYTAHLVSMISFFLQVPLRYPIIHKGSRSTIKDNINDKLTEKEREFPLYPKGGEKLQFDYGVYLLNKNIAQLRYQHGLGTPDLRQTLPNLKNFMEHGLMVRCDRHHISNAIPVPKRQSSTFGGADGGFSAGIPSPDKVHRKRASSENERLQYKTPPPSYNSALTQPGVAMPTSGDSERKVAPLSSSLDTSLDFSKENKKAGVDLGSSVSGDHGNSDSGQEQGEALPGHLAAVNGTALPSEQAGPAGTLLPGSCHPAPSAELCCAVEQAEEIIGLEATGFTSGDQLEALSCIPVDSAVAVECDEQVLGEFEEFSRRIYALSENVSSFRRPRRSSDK
Test: co-IP; cell lysates mixed with anti-UVRAG antibody/anti-SMURF1 antibody and protein A sepharose, overnight at 4 °C; washed three times with IP lysis buffer; Western blot for SMURF1 and UVRAG

- binding: binds
Substance: Smad ubiquitin regulatory factor 1 (SMURF1) (from UniProt Q9CUN6 1-731) (enzyme)
